“And” between values parts separate entries of the source, which are not always exact repeats. Equal values may be shown once. Some of the results follow. For some assays here: Construct or isoform of the protein are uncertain.

By UniProt entry, the sequences of proteins in these tests, tags left out.
UniProt Q9UIV1, whole entry: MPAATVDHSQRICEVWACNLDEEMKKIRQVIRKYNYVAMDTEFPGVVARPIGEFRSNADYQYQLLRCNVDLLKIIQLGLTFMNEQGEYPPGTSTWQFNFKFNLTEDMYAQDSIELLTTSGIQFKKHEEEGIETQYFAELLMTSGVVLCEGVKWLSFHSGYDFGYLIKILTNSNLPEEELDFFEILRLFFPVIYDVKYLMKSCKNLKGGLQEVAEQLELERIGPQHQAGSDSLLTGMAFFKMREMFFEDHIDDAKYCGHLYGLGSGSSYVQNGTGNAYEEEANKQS

The values below come from paper PMC5996148.

Among the test systems are CLEC7A (human); CLIC2 (human); CLMN (human); CLP1 (human); CLPS (human); CLTB (human); CLUAP1 (human); CLUL1 (human); CMTM1 (human); CNIH (human); CNNM1 (human); CNR2 (human); CNTROB (human); COASY (human); COBRA1 (human); COG8 (human); COL14A1 (human).
What all share (test): protein microarray (ProtoArray v5.0), streptavidin-Alexa Fluor 647
Settings in all cases: 3'-biotin; 20 mM Tris (pH 7.5), 5 mM MgCl2, 100 mM KCl, 0.1% Tween-20, A/T-rich and random oligonucleotide blockers; temperature not stated; high values mean tight binding

Another test addresses T1, CLTA (UniProt P09496).
T1 sequence: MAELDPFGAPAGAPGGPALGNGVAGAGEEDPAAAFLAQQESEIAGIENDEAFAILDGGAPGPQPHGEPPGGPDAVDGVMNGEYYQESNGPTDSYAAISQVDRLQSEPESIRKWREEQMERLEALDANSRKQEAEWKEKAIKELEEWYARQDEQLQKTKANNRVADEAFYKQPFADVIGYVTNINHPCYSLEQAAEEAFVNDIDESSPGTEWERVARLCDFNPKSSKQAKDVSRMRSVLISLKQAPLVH

The subject of test [1] is CMRF35-like molecule 2 (human).
A further test has as its target CNOT7 (UniProt Q9UIV1).

For “GGGAGGCTGAGGCAGG [G4-1 biotinylated (PQS2)]”, the binding signal was -0.287 z-score in the test on CLEC7A (human); -0.291 z-score in the test with CLIC2 (human); -0.314 z-score in the test with CLMN (human); -0.343 z-score with CLP1 (human); -0.314 z-score in the test on CLPS (human); -0.345 z-score with CLTA. Further, the binding signal with CLTB (human) was -0.362 z-score; in the test with CLUAP1 (human), -0.31 z-score; with CLUL1 (human), -0.351 z-score; in test [1], -0.263 z-score; in the test with CMTM1 (human), -0.258 z-score; in the test on CNIH (human) it was -0.334 z-score. The binding signal in the test with CNNM1 (human) was -0.342 z-score; with CNOT7 it was -0.341 z-score; in the test on CNR2 (human), -0.332 z-score; with CNTROB (human), -0.314 z-score; with COASY (human), -0.261 z-score and -0.325 z-score and -0.339 z-score; in the test on COBRA1 (human), -0.334 z-score. For the same sequence, the figures for the binding signal in the test with COG8 (human) and in the test with COL14A1 (human) were -0.367 z-score and -0.312 z-score, respectively.
